Values of other authors, collected in patent US4889859A, “Pyrido[2,3-d]pyrimidine derivatives” (priority 1988, dated 1989).
At least one compound was matched to its structure with a doubt left.

Conditions: literature; cited from earlier work

Row | SMILES | antimetabolic activity
1 | Nc1nc(N)c2c(n1)NCC(CNc1ccc(C(=O)N[C@@H](CCC(=O)O)C(=O)O)cc1)C2 (some centres unmarked) [5,6,7,8-Tetrahydro-5-deazaaminopterin] | active
2 | Nc1nc(N)c2cc(CNc3ccc(C(=O)N[C@@H](CCC(=O)O)C(=O)O)cc3)cnc2n1 [5-deazaaminopterin] | activity similar to that of amethopterin
